# From PubChem BioAssay (EPA / NIEHS)
# The chains behind the UniProt entries cited, without tags or fusion partners. Where a name states a change or a piece, a line headed by the entry shows the natural chain unless it says otherwise.
# UniProt P21709: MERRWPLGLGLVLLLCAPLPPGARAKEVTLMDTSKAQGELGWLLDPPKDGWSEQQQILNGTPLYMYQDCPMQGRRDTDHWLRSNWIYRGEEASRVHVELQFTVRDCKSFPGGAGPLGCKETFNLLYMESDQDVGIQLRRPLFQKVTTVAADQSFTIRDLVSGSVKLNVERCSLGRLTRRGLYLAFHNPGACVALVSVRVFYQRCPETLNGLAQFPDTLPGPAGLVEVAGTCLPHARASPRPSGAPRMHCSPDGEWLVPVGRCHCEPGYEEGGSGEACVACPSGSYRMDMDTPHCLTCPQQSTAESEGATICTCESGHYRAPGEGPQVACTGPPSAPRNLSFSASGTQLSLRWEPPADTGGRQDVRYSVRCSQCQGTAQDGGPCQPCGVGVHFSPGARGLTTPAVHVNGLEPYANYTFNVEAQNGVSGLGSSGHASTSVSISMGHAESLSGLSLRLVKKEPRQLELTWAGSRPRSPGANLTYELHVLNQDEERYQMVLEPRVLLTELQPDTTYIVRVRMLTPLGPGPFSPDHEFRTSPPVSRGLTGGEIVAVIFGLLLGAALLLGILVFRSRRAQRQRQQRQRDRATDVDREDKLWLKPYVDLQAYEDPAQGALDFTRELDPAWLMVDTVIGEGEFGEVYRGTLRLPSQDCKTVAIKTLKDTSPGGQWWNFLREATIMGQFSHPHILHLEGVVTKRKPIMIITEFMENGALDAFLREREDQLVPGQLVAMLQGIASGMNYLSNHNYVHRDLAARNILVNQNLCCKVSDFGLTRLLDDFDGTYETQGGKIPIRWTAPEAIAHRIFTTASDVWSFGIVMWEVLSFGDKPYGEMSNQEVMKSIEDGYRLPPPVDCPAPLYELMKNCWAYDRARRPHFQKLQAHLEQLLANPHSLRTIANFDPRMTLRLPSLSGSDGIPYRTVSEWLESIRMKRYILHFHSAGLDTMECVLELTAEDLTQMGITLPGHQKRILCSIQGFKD
# UniProt P17948, whole entry, looked up: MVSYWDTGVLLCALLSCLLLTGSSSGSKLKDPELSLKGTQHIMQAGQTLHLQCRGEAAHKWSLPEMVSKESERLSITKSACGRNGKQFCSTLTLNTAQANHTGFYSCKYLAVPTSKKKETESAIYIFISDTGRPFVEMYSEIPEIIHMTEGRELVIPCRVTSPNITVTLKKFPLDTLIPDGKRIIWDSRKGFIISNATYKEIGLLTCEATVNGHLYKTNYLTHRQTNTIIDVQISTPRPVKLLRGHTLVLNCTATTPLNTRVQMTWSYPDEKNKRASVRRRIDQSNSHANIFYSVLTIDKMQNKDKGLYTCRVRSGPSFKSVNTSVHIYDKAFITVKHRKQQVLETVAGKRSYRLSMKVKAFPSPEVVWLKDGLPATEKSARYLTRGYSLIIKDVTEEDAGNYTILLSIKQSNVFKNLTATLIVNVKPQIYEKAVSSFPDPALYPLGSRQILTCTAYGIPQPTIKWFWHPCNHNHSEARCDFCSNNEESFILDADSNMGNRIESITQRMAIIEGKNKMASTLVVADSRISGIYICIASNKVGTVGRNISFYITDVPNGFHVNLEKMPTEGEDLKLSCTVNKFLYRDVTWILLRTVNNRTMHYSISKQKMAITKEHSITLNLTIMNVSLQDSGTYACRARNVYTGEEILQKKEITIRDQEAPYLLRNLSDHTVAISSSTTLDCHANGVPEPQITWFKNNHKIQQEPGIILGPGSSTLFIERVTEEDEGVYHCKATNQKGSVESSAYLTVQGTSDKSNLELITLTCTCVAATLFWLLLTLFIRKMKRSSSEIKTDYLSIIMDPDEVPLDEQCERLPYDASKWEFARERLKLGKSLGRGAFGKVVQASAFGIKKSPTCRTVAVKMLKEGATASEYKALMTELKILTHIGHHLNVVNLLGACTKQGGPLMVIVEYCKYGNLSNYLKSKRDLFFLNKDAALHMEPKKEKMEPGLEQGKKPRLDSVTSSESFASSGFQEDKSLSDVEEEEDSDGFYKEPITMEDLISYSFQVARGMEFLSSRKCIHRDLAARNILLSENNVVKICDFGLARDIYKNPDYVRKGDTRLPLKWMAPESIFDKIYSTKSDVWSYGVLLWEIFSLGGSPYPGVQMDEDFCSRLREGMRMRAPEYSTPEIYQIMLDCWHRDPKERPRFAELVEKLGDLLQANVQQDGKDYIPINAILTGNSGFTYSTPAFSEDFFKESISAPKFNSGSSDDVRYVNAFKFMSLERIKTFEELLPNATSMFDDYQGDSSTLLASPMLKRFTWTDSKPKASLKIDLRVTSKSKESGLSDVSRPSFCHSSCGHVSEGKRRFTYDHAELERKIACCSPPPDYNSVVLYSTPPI
# UniProt P10275: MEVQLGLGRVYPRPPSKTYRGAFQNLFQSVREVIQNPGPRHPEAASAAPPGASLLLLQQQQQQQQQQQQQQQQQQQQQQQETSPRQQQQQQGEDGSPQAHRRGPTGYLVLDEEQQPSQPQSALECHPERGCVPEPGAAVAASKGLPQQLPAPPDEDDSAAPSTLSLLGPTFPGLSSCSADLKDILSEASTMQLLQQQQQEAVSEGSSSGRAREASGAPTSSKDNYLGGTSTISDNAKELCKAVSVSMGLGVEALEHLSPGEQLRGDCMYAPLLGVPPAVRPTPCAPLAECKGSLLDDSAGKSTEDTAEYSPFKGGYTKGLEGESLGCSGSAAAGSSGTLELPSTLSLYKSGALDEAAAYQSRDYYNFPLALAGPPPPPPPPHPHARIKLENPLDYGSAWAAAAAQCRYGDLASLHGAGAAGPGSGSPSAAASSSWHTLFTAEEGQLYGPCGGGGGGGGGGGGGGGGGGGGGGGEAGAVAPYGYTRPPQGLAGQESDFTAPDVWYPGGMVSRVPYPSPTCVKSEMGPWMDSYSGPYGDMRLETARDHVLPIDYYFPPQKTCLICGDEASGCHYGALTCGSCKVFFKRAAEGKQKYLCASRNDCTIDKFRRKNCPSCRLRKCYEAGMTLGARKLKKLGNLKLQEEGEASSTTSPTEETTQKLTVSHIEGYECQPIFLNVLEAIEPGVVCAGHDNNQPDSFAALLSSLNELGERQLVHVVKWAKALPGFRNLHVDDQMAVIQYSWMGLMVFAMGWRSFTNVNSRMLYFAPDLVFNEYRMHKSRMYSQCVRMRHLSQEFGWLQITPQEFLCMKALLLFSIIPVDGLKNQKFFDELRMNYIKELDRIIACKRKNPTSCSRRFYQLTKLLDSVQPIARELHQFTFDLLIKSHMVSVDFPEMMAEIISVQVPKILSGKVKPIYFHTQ
# UniProt P19785, whole entry, looked up: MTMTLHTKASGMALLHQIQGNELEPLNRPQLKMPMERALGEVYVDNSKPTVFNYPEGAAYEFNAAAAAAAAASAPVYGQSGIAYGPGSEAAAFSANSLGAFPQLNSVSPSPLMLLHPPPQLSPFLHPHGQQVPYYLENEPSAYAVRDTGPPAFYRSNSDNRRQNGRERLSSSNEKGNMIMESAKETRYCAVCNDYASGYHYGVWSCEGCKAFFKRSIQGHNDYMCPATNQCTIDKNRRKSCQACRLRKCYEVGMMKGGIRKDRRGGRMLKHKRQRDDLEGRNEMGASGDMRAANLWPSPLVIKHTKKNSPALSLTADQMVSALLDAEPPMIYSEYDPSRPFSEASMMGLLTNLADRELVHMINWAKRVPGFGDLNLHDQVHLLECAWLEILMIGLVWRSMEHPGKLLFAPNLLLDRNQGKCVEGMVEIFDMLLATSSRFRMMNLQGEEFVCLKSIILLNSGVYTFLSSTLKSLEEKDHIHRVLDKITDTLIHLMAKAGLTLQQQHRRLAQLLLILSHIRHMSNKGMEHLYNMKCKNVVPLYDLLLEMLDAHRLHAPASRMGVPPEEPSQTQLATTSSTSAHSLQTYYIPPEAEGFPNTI
# UniProt Q96RI1: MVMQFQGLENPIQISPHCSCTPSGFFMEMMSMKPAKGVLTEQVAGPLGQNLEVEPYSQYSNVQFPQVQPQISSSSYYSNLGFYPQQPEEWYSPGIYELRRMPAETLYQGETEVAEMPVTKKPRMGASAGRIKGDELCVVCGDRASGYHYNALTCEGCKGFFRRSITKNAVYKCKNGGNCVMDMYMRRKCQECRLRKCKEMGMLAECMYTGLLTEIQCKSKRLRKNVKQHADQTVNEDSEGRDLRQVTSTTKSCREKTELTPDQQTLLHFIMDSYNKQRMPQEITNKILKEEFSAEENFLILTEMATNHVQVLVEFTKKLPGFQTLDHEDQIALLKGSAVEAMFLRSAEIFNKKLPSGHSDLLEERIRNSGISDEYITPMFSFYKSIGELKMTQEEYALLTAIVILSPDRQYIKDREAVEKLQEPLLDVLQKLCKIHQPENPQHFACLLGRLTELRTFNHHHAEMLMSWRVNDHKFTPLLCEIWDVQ
# UniProt P49884, whole entry, looked up: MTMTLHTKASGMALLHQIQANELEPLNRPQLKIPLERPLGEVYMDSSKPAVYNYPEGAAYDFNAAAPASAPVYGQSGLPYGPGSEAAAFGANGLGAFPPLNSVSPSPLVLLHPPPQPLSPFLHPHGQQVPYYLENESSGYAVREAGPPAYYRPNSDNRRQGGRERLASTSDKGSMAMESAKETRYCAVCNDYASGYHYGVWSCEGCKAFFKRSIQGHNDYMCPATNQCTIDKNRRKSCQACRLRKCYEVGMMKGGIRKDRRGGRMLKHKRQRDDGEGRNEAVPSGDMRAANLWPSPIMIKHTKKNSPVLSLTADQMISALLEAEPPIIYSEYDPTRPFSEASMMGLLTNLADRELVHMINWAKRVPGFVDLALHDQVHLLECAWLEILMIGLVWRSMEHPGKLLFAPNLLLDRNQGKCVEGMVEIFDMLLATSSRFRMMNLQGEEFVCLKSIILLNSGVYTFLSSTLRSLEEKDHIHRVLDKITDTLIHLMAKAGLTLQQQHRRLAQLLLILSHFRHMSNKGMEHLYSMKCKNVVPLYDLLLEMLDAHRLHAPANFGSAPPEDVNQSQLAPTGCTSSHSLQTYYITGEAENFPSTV
# UniProt P03372, whole entry, looked up: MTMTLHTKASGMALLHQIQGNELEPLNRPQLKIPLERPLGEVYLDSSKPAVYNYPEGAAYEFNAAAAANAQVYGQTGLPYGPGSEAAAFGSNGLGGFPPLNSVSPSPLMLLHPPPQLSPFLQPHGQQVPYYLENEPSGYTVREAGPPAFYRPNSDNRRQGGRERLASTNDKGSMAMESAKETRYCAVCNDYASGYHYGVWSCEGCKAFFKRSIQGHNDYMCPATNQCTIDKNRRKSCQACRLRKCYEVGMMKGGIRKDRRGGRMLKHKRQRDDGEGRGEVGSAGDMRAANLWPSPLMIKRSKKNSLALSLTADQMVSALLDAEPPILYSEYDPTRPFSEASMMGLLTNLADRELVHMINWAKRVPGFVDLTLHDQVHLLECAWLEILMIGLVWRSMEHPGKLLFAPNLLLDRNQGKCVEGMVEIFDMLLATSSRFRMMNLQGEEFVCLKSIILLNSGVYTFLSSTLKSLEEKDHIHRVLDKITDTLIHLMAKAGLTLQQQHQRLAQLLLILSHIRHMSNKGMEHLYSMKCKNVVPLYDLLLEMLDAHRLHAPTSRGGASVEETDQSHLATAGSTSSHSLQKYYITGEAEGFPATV
# UniProt P37231: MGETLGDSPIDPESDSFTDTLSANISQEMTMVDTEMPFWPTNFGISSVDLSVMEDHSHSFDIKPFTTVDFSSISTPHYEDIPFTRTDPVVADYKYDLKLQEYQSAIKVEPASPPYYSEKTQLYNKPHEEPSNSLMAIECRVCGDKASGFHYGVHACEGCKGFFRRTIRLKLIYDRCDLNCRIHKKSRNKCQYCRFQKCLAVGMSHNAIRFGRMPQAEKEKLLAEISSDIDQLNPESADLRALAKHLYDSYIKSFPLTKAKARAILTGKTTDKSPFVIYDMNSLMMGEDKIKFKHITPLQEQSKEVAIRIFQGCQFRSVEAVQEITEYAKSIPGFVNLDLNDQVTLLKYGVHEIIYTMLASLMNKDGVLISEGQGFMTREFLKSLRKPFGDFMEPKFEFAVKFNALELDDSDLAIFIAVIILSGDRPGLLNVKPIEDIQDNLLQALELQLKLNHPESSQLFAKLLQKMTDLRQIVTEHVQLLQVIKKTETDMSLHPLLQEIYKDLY
# UniProt Q07869: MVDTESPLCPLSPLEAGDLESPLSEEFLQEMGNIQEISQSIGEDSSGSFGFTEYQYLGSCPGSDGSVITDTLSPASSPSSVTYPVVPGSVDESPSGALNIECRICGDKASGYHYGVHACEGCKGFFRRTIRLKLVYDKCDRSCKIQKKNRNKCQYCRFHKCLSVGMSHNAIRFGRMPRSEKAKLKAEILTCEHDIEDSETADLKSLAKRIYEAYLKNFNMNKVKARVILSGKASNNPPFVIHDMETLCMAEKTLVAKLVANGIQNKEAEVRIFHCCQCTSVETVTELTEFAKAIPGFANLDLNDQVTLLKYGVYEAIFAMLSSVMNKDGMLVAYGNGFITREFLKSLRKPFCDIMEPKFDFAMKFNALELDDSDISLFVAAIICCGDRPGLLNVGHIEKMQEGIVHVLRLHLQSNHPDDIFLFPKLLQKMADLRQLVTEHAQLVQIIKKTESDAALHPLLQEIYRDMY
# Inconclusive means that the source gave no clear call. Such entries were picked first, then a sample of the others. For part of these data: Where the call is inconclusive, the potency comes from a doubtful curve fit. Calls of active or inactive are those of the source. How the source made its calls: active means hit-call score of the fitted dose curve at least 0.9, where 1 is the maximum; inconclusive means response in the unintended direction; inactive means score below 0.9.
# Assays:
# [1] = molecular target: human Ephrin type-A Receptor 1 (EphA1), EPHA1 (gene 2041) (UniProt P21709); assay: NVS_ENZ_hEphA1: NovaScreen (NVS) Enzymatic Assay for human Ephrin type-A Receptor 1 (EphA1) (AID 2283158);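 further: activity is signal loss versus DMSO meaning EphA1 kinase inhibition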
# Method in brief: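 Fluorescent substrate conversion, resolved by mobility-shift separation, measured 1 hour post-dosing using recombinant enzyme; signal loss relative to DMSO baseline. Single-concentration duplicates at 25 uM preceded singleton concentration series topping at 50 uM.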
# [2] = molecular target: human Vascular Endothelial Growth Factor Receptor 1 (VEGFR1), FLT1 (gene 2321) (UniProt P17948); assay: NVS_ENZ_hVEGFR1: NovaScreen (NVS) Enzymatic Assay for human Vascular Endothelial Growth Factor Receptor 1 (VEGFR1) (AID 2283226)
# Method in brief: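 Cell-free assay of recombinant human VEGFR1 kinase with substrate, measured 1 h after dosing; fluorescence with electrophoretic mobility-shift separation of substrate and product, referenced to DMSO; primary screen at 25 uM in duplicate, actives then run in concentration series.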
# [3] = molecular target: Estrogen-related receptor gamma (Homo sapiens) (UniProt P62508); assay: ATG_ERRg_TRANS: Attagene TRANS-FACTORIAL HepG2 Assay for human Estrogen-Related Receptor gamma (ERRg) (AID 2282977); conditions: HepG2 Attagene TRANS reporter, ERRg transactivation;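 further: hits increase reporter signal over DMSO so potencies reflect activators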
# Method in brief: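 HepG2 cells transiently transfected with multiplexed GAL4-UAS reporter units driven by chimeric NR-Gal4 proteins; 24 h exposure. Reporter mRNA quantified by RT-PCR, fluorescent labelling, HpaI digestion and capillary electrophoresis; gain of signal vs DMSO.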
# [4] = Tanguay_ZF_120hpf_PE_legacy: (Legacy) Oregon State University Tanguay Lab 120 Hour Post-fertilization zebrafish Assay for Pericardial Edema (AID 2283640);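 on AC50: potency for increased incidence of pericardial edema versus DMSO baseline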
# Method in brief: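 Scoring was binary, by brightfield microscopy at 120 hpf, and skipped where mortality occurred. Wild-type embryos were kept under sealed, foil-covered static exposure at 28C in 0.64% (vol/vol) DMSO.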
# [5] = Tanguay_ZF_120hpf_OTIC_legacy: (Legacy) Oregon State University Tanguay Lab 120 Hour Post-fertilization zebrafish Assay for Otic Vesicle Malformation (AID 2283639)
# Method in brief: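 Tropical 5D wild-type zebrafish embryos statically exposed in 0.64% DMSO at 28C until 120 hpf; 5uM trimethyltin chloride as positive control. Otic vesicle malformation scored present/absent by brightfield; dead embryos not scored; gain fitted versus DMSO.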
# [6] = ACEA_AR_agonist_AUC_viability: ACEA Biosciences xCELLigence Real-Time Cell Analysis on Androgen Receptor Agonism for Viability (AID 2283775);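 on AC50: viability read 80 hours after compound addition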
# Method in brief: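 Real-time impedance tracking of 22Rv1 growth, readings every 5 min for 5 h then hourly; area-under-curve viability endpoint at 80 hours, relative to DMSO. Compounds at eight concentrations, 1:4 steps, top 100 uM, n = 2.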
# AR (gene 367) = AR (gene 367) (UniProt P10275); assay: ACEA_AR_agonist_80hr: ACEA Biosciences xCELLigence Real-Time Cell Analysis on Androgen Receptor Agonism for Proliferation (AID 2283783);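 further: hits increase impedance growth signal above DMSO baseline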
# Method in brief: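 Androgen-driven proliferation in 22Rv1 cells is tracked as electrical impedance, taken 80 h after continuous exposure to compound (eight concentrations, 1:4 steps, maximum 100 uM final). Activity is fitted in the positive direction with DMSO as baseline.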
# [7] = molecular target: mouse Estrogen Receptor alpha (Era), Esr1 (gene 13982) (UniProt P19785); assay: NVS_NR_mERa: NovaScreen (NVS) Nuclear Receptor Binding Assay for mouse Estrogen Receptor alpha (Era) (AID 2283378);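 further: hit means loss of bound radioligand signal relative to DMSO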
# Method in brief: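 Filter radiodetection of radioligand displacement from extracted receptor protein, measured 18 h post-dose. Single 25 uM concentration in duplicate initially, with concentration-series follow-up. Binding loss fitted relative to DMSO.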
# [8] = CCTE_Deisenroth_AIME_384WELL_CTox_Active: Cytotoxicity Assessment (CTOX) in CCTE's 384-well Estrogen Receptor Transactivation Assay with AIME metabolic competence (metabolism positive), Deisenroth Lab (AID 2284037);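 further: chemicals first conditioned 2 h by alginate-bound induced rat liver S9 before cells; activity means signal loss indicating cell death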
# Method in brief: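 Cytotoxicity in VM7Luc4E2 breast cells, 24 hour, measured as protease-substrate fluorescence loss, after 2-hour metabolic conditioning with induced rat hepatic S9 in alginate microspheres. Concentrations 0.002 - 200 uM, 10 points, bidirectional fitting.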
# [9] = molecular target: Bile acid receptor (Homo sapiens) (UniProt Q96RI1); assay: OT_FXR_FXRSRC1_0480: Odyssey Thera (OT) 8-hour HEK293T Protein-Complementation Assay for Farnesoid X receptor/SRC-1 Co-activator (AID 2283383)
# Method in brief: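 HEK293T protein-fragment complementation assay: FXR and SRC-1 coactivator are fused to reporter fragments, and their interaction restores a fluorescent reporter. Readout was taken 8 h after dosing, with gain of signal fit relative to DMSO.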
# [10] = ACEA_AR_antagonist_AUC_viability: ACEA Biosciences xCELLigence Real-Time Cell Analysis on Androgen Receptor Antagonism for Viability (AID 2283776);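 further: 22Rv1 human prostate cancer cells growing on impedance electrode plates; hits lower the growth signal relative to DMSO meaning cytotoxicity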
# Method in brief: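 Real-time electrical impedance tracks 22Rv1 proliferation after continuous compound exposure (top 100 uM final, 1:4 steps, 8 concentrations). The 80 h area-under-curve serves as the cytotoxicity readout relative to DMSO.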
# [11] = molecular target: bovine Estrogen Receptor (ER), ESR1 (gene 407238) (UniProt P49884); assay: NVS_NR_bER: NovaScreen (NVS) Nuclear Receptor Binding Assay for bovine Estrogen Receptor (ER) (AID 2283345);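 further: actives lower the bound radioligand count which means they displace the ER ligand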
# Method in brief: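 Cell-free radioligand binding with receptor from bovine uterine membranes, read by scintillation counting 18 h after dosing. Loss of specific binding was scored against DMSO; primary screen at 25 uM in duplicate, actives then run as concentration series.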
# [12] = molecular target: Estrogen receptor (Homo sapiens) (UniProt P03372); assay: NVS_NR_hER: NovaScreen (NVS) Nuclear Receptor Binding Assay for human Estrogen Receptor (ER) (AID 2283348)
# Method in brief: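 Scintillation signal from bound radioligand was measured 18 hours after chemical addition to cell-free MCF7 protein extracts, with DMSO as baseline. Activity was scored as signal loss; compounds ran first at 25 uM in duplicate.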
# [13] = molecular target: Peroxisome proliferator-activated receptor gamma (Homo sapiens) (UniProt P37231); assay: NVS_NR_hPPARg: NovaScreen (NVS) Nuclear Receptor Binding Assay for human Peroxisome Proliferator-activated Receptor gamma (PPARg) (AID 2283370)
# Method in brief: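 Fluorescence polarization readout of ligand binding to extracted human PPARg, measured at 2 h. Duplicate single-point screen at 25 uM, then concentration-series retesting; activity defined as signal loss versus DMSO.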
# [14] = molecular target: Bile acid receptor (Homo sapiens) (UniProt Q96RI1); assay: OT_FXR_FXRSRC1_1440: Odyssey Thera (OT) 24-hour HEK293T Protein-Complementation Assay for Farnesoid X receptor/SRC-1 Co-activator (AID 2283384)
# Method in brief: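 HEK293T cells, 24 h after chemical dosing. FXR–SRC-1 coactivator interaction read as fluorescence from protein-fragment complementation of a split reporter. Gain of signal fitted against DMSO baseline.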
# [15] = Tanguay_ZF_120hpf_BRAI_legacy: (Legacy) Oregon State University Tanguay Lab 120 Hour Post-fertilization zebrafish Assay for Brain Malformation (AID 2283641)
# Method in brief: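 Binary brightfield scoring of brain malformation at 120 hpf in Tropical 5D larvae held under static exposure at 28C (0.64% v/v DMSO), non-mortality endpoints skipped if dead. Positive control: 5uM trimethyltin chloride; fit versus DMSO.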
# [16] = Tanguay_ZF_120hpf_PFIN_legacy: (Legacy) Oregon State University Tanguay Lab 120 Hour Post-fertilization zebrafish Assay for Pectoral Fin Malformation (AID 2283648);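 further: each larva judged yes or no for fin defect by brightfield with dead larvae skipped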
# Method in brief: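 5D WT zebrafish; pronase dechorionation 4 hpf; 1 embryo/well at 6 hpf; static exposure to 120 hpf, 28C, sealed, foil-covered; final DMSO 0.64% v/v; 5 uM trimethyltin chloride positive control; fin defect scored yes/no.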
# [17] = CCTE_Shafer_MEA_acute_AB: CCTE's Alamar Blue Assay for Cytotoxicity in the Neural Acute Assay, Shafer Lab (AID 2284069);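 further: active compounds lower the viability signal compared with DMSO wells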
# Method in brief: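 Read-out: resazurin fluorescence (ex 544, em 590 nm) after CTB reagent at 1:6 dilution in fresh media. Cells: primary rat cortical neuron networks, DIV 13 or 15, chemically exposed on MEA plates; DMSO as negative control/baseline.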
# [18] = Tanguay_ZF_120hpf_NC_legacy: (Legacy) Oregon State University Tanguay Lab 120 Hour Post-fertilization zebrafish Assay for Notochord and Tail Malformation (AID 2283656)
# Method in brief: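 Dechorionated Tropical 5D wild-type zebrafish embryos, one per well from 6 hpf, statically exposed to 120 hpf at 28C in 0.64% DMSO final. Notochord distortion scored present/absent by brightfield; dead embryos excluded.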
# [19] = molecular target: human Peroxisome Proliferator-activated Receptor alpha (PPARa), PPARA (gene 5465) (UniProt Q07869); assay: NVS_NR_hPPARa: NovaScreen (NVS) Nuclear Receptor Binding Assay for human Peroxisome Proliferator-activated Receptor alpha (PPARa) (AID 2283359);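 further: activity means loss of TR-FRET signal versus DMSO baseline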
# Method in brief: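 Chemicals were first screened in duplicate at 25 uM, and active ones were retested across concentration series. Binding was monitored by TR-FRET one hour after dosing, with decreased signal against DMSO counted as activity.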
smiles,measurement,setting,value
COc1cc2ncnc(Nc3cccc(Cl)c3)c2cc1OC,outcome,[1],inactive
same,AC50,[2],active: 1.27 µM
CCCCCCCCN(C)C,AC50,[3],inconclusive: 0.0423 µM
same,outcome,[1],inactive
same,AC50,[4],inconclusive: 93.8 µM
c1ccc2c(c1)ccc1ccccc12,AC50,[3],inconclusive: 100 µM
same,AC50,[5],inconclusive: 77.1 µM
same,outcome,[4],inactive
same,AC50,[6],active: 50 µM
same,AC50,AR (gene 367),inconclusive: 0.0114 µM
CN(CCOc1ccc(CC2SC(=O)NC2=O)cc1)c1ccccn1 (stereo not given),AC50,[7],inconclusive: 25 µM
CSCCC=O,outcome,[3],inactive
same,AC50,[8],inconclusive: 0.00024 µM
CS(C)=O,AC50,[9],inconclusive: 12.7 µM
Nc1ccccc1[N+](=O)[O-],AC50,[3],inconclusive: 100 µM
same,AC50,[10],inconclusive: 0.117 µM
Cc1ccccc1C(OCCN(C)C)c1ccccc1 (stereo not given),AC50,[3],inconclusive: 100 µM
FC(F)(F)c1ccc(Cl)c(Cl)c1,AC50,[11],inconclusive: 25 µM
same,AC50,[12],inconclusive: 25 µM
same,outcome,[7],inactive
same,AC50,[10],inconclusive: 16.6 µM
same,AC50,AR (gene 367),inconclusive: 16.6 µM
COC(=O)C1CCC(C(=O)OC)CC1 (stereo not given),AC50,[3],inconclusive: 100 µM
same,outcome,[9],inactive
COc1c(Cl)ccc(Cl)c1C(=O)O,outcome,[12],inactive
same,AC50,[13],inconclusive: 0.0269 µM
same,AC50,[8],inconclusive: 0.0002 µM
NCC(F)(F)C(F)(F)C(F)(F)C(F)(F)C(F)(F)C(F)(F)C(F)(F)F,AC50,[3],inconclusive: 100 µM
COCc1nnc(-c2ccc[n+]([O-])c2)n1-c1c(Cl)c(Cl)cc2[nH]c(=O)c(=O)[nH]c12,AC50,[13],inconclusive: 6.94 µM
same,AC50,[14],inconclusive: 7.09 µM
same,AC50,[15],inconclusive: 29.9 µM
same,AC50,[16],inconclusive: 155 µM
same,AC50,AR (gene 367),inconclusive: 13.3 µM
same,outcome,[17],inactive
CCCCC(CC)COC(=O)CCCCCCCC(=O)OCC(CC)CCCC (stereo not given),AC50,[3],inconclusive: 100 µM
same,outcome,[7],inactive
same,outcome,[9],inactive
same,AC50,[14],inconclusive: 9.99 µM
same,outcome,[5],inactive
same,AC50,[4],inconclusive: 202 µM
same,AC50,[15],inconclusive: 202 µM
same,AC50,[18],inconclusive: 30.4 µM
OCCC(F)(F)C(F)(F)C(F)(F)C(F)(F)C(F)(F)C(F)(F)F,AC50,[19],inconclusive: 25 µM
same,AC50,[16],inconclusive: 201 µM
same,AC50,[18],inconclusive: 2.16 µM
same,AC50,[10],inconclusive: 0.000366 µM
CCCCCCCCCCCCCC(=O)OC(C)C,AC50,[11],inconclusive: 0.861 µM
same,AC50,[12],inconclusive: 0.323 µM
same,AC50,[7],inconclusive: 5.97 µM
same,outcome,[9],inactive
same,AC50,[14],inconclusive: 9.92 µM
same,AC50,AR (gene 367),inconclusive: 16.6 µM
same,AC50,[8],inconclusive: 0.0015 µM
CCC(C)OC(=O)c1ccc(O)cc1 (stereo not given),outcome,[3],inactive
same,AC50,[11],active: 9.45 µM
same,AC50,[12],active: 0.603 µM
same,AC50,[7],active: 4.99 µM
CCO[Si](OCC)(OCC)c1ccccc1,AC50,[3],inconclusive: 100 µM
CCCCCCCC1CCCC1=O (stereo not given),outcome,[1],inactive
CCCCCCOCCOCCO,AC50,[1],inconclusive: 0.46 µM
O=C(CCCCCCCCc1cccnc1)N1CCC(C=C(c2ccccc2)c2ccccc2)CC1,AC50,[3],inconclusive: 19.8 µM
same,outcome,[15],inactive
same,AC50,[18],inconclusive: 0.0113 µM
same,outcome,AR (gene 367),inactive
CCCCCCOc1ccc(N)cc1,AC50,[3],inconclusive: 100 µM
same,outcome,[9],inactive
CC1=CCC(C(C)(C)O)CC1 (stereo not given),outcome,[14],inactive
same,AC50,AR (gene 367),inconclusive: 0.979 µM
CC(C)c1cccc(C(C)C)c1N1C(=O)c2ccc(O)cc2C1=O,outcome,[2],inactive
same,AC50,[19],inconclusive: 25 µM
same,AC50,[18],inconclusive: 3.58 µM
CCOc1ccc(N=Nc2ccc(C=Cc3ccc(N=Nc4ccc(OCC)cc4)cc3S(=O)(=O)O)c(S(=O)(=O)O)c2)cc1,AC50,[19],active: 9.11 µM
CCCCOC(=O)COc1ccc(Cl)cc1Cl,outcome,[9],inactive
same,AC50,[14],inconclusive: 12.6 µM
same,outcome,[6],inactive
same,outcome,[10],inactive
Cc1ccc(C)c(O)c1C,AC50,[5],inconclusive: 202 µM
same,AC50,[15],inconclusive: 146 µM
same,AC50,AR (gene 367),inconclusive: 50 µM
same,outcome,[17],inactive
CC(COCC(C)OC(=O)c1ccccc1)OC(=O)c1ccccc1 (stereo not given),AC50,[4],inconclusive: 1.25 µM
same,AC50,[16],inconclusive: 3.2 µM
same,AC50,[18],inconclusive: 0.00064 µM
same,AC50,[6],inconclusive: 1.04 µM
same,outcome,[10],inactive

# Nothing new here: entries from further up.
smiles,measurement,setting,value
CCCCC(CC)COC(=O)CCCCCCCC(=O)OCC(CC)CCCC (stereo not given),outcome,[9],inactive
same,AC50,[14],inconclusive: 9.99 µM
same,outcome,[5],inactive
same,AC50,[4],inconclusive: 202 µM
same,AC50,[15],inconclusive: 202 µM
